Out of some 360,000 compounds screened, about 780 (0.22%) were called active. Inconclusive means that the source gave no clear call. Such entries were picked first, then a sample of the others. No stated cut-off is given here; in the data, active means inhibition above about 35% (passing the limit was not always enough); inconclusive means no clear call, values can overlap the other calls.
These compounds were tested on Botulinum neurotoxin type F light chain protease (Clostridium botulinum) (assay: BoNT/F light chain protease inhibitors, primary screen, biochemical, flow cytometry, MLPCN library (AID 588497; further: plate controls were buffer without enzyme for full effect and enzyme alone for no effect)). Details: Multiplex microsphere protease cleavage assay, at 10 µM, active compounds read high.

Row | SMILES | inhibition
1 | CN(C)S(=O)(=O)c1ccc(C(=O)NCCOc2ccc(F)cc2)cc1 | inactive: -6.7%
2 | COCCCNC(=O)c1ccccc1-c1cc(C)no1 | inconclusive: 125%
3 | CCOC(=O)CSc1n[nH]c(-c2ccco2)n1 | inactive: -1.1%
4 | COc1ccc(OCC(=O)N2CCN(C(=O)Cc3ccccc3)CC2)cc1 | inconclusive: 14.9%
5 | C[C@H](CO)N1C[C@H](C)[C@@H](CN(C)S(C)(=O)=O)Oc2c(NC(=O)Nc3ccc4c(c3)OCO4)cccc2C1=O | inactive: -3.8%
6 | CCC(Oc1ccccc1F)C(=O)Nc1ccc2c(c1)n(C)c(=O)n2C (stereo not given) | active: 38.2%
7 | S=C(NCCc1ccccc1)N1Cc2cc(N3CCCCC3)ccc2-n2nncc2C1 | active: 70.4%
8 | CC[n+]1cc(C)ccc1/C=C/c1ccc(N(C)C)cc1 | inconclusive: -91.1%
9 | CN(C)CCSCc1nnc2n1-c1ccc(Cl)cc1C(c1ccccc1Cl)=NC2 | inconclusive: 27.3%
10 | CSc1cc(-c2ccc(Cl)cc2)c(C(=O)NC(C)C)s1 | inconclusive: 4.1%
11 | COc1ccc(-c2nn(CCC#N)cc2C(=O)Nc2ccccn2)cc1OC | inconclusive: 43.7%
12 | Cc1ccc(N2C(=O)C3ON(c4ccccc4)C(CC(C)C)C3C2=O)cc1 (stereo not given) | inconclusive: 81.9%
13 | C/C(=N\NC(=O)c1csc(C)c1C)c1ccc(Cl)s1 | inconclusive: 26.2%
14 | O=C(CSc1nncs1)NCCNC(=O)CSc1nncs1 | inconclusive: 25.3%
15 | O=S(=O)(Nc1ccon1)c1ccc(Br)cc1 | inactive: 1.3%
16 | CN(C)CCCOc1ccc(Cl)cc1Br | inactive: 5.1%
17 | CCN1C(=O)[C@H]2[C@H]3CN=C(SCc4ccc(C(=O)OC)cc4)N3[C@@](C)(C(=O)OC)[C@H]2C1=O | inactive: -1.1%
18 | Cc1ccc(S(=O)(=O)N2CCCOC2CNC(=O)C(=O)NC2CCCC2)cc1 (stereo not given) | inactive: 0.4%
19 | O=C(Nn1c(-c2ccc(F)cc2)nc2ccccc2c1=O)C1CCCCC1 | inactive: -9.7%
20 | COc1cccc(C(C)NC(=O)C2CCCO2)c1 (stereo not given) | inactive: -15.6%

Row | SMILES | inhibition
21 | O=C(c1cc2c(=O)n3ccccc3nc2s1)N1CCN(Cc2ccc3c(c2)OCO3)CC1 | inactive: -6.5%
22 | O=S(=O)(Nc1ccc(O)c2ccccc12)c1ccc(OC(F)(F)F)cc1 | inconclusive: -73.2%
23 | COc1ccccc1NC(=O)CN(c1ccccc1)S(=O)(=O)c1ccccc1 | inactive: -4.9%
24 | Cn1c(N)c(C(=O)/C=C/c2ccccc2)c(=O)[nH]c1=O | inconclusive: -20.8%
25 | CC1(/[N+]([O-])=C/c2ccc(F)cc2)CCCCC1=O (stereo not given) | inconclusive: 169%
26 | S=C1NCN(Cc2cccnc2)CN1 | active: 35%
27 | CCOc1cc(C2NC(=O)NC(O)(C(F)(F)F)C2C(=O)c2ccccc2)ccc1OC (stereo not given) | inconclusive: -131%
28 | O=C(NCCS(=O)(=O)NC1CCCCC1)c1ccccc1 | inconclusive: 2.5%
29 | Cc1ccccc1N=C1NC(=O)/C(=C/c2cccn2C)S1 | inconclusive: -31.1%
30 | Oc1ccc(N=Cc2c(O)ccc3ccccc23)cc1 | inconclusive: -15.9%
31 | NC(=O)c1sc2nnc(-c3ccccc3)c(-c3ccccc3)c2c1N | inconclusive: -405%
32 | CC(C)OC(=O)c1c(N)n(CCCN2CCOCC2)c2nc3ccccc3nc12 | inactive: 1.8%
33 | NC(=O)N/N=C/c1ccccc1OCc1cccc2ccccc12 | inconclusive: 2.2%
34 | COC(CNc1ccc([N+](=O)[O-])c(NCC(OC)OC)c1C#N)OC | inconclusive: 4%
35 | CCNc1ccc([N+](=O)[O-])cc1 | inconclusive: -38.1%
36 | COCCn1c(=NC(=O)c2cc3ccccc3oc2=O)sc2cc(S(N)(=O)=O)ccc21 | inactive: 20.6%
37 | Cc1ccc(CSc2nc3ccncc3[nH]2)cc1 | inactive: -0.5%
38 | O=C(NCc1ccccc1)c1ccc(S(=O)(=O)NCc2ccco2)cc1 | inactive: -23.7%
39 | Cc1ccc(NC(=O)CCNC(=O)c2ccc(Br)cc2)cc1S(=O)(=O)N1CCCCCC1 | inconclusive: 11.8%
40 | O=C(CSc1nnc(Cc2ccccc2)o1)c1ccc2c(c1)OCO2 | inconclusive: -5%

In a second layout: entries from further up.
CC(C)OC(=O)c1c(N)n(CCCN2CCOCC2)c2nc3ccccc3nc12
  inhibition: inactive: 1.8%
Cc1ccc(CSc2nc3ccncc3[nH]2)cc1
  inhibition: inactive: -0.5%

Continued.

Row | SMILES | inhibition
41 | Cc1cccc(CC(=O)N2CCCC2)c1 | inconclusive: -9.1%
42 | CN(C)c1ccc(C(c2ccc(N(C)C)cc2)C(O)c2ccccc2)cc1 (stereo not given) | inactive: -4.6%
43 | S=c1[nH]nc(COc2cccc3ccccc23)n1Cc1ccccc1 | inconclusive: 3.1%
44 | COc1ccc(-c2nnc3sc(COc4ccc(C)cc4)nn23)cc1 | inconclusive: -31.7%
45 | Cc1ccc(C(=O)NNC(=O)c2cc3ccccc3cc2O)cc1 | inconclusive: 0.1%
46 | N#C/C(=C\c1ccc(Cl)cc1)C(=O)NC1CC1 | inconclusive: -17.4%
47 | O=C(NCc1ccc2c(c1)OCO2)c1ccc(Br)cc1 | inconclusive: 31.6%
48 | COCCn1cnc2c(c1=O)c1nc3ccccc3nc1n2/N=C/c1cccc(OC)c1 | inconclusive: -5.7%
49 | COc1cccc(CNc2nc3ccc(NC(C)=O)cc3s2)c1 | inconclusive: 28.1%
50 | COc1ccccc1C1=NOC(COc2ccc3c(C)cc(=O)oc3c2)C1 (stereo not given) | active: 43.7%
51 | c1ccc(C2Nc3cccc4cccc(c34)N2)cc1 | inconclusive: -38.2%
52 | Cc1cc(C(=O)O)ccc1N=Cc1c(O)ccc2ccccc12 | inconclusive: -14.2%
53 | O=Cc1ccc(-c2nc3ccccc3s2)o1 | inactive: -1.3%
54 | Cc1ccc2[nH]c3c(c2c1)CCCC3NCCO (stereo not given) | inconclusive: 9.7%
55 | CC(C)(C)C(=O)CN1C(=O)C2(OCCO2)c2ccccc21 | inactive: 10.5%
56 | CSc1ccc(CN(C)CCc2ccccn2)cc1 | inconclusive: -15.2%
57 | COc1cccc(Nc2nc(C(N)CCc3ccccc3)cs2)n1 (stereo not given) | inactive: -16.7%
58 | C[C@@H]1CCCCO[C@@H](CN(C)CC2CC2)[C@@H](C)CN([C@H](C)CO)C(=O)c2cc(N(C)C)ccc2O1 | inactive: -3.2%
59 | C=C(C)Cn1c2ccc(NC(=O)NCCc3ccccc3)cc2c(=O)n1C | inactive: -0.3%
60 | Cc1nc(NC(=O)CSc2nc3cccnc3n2C2CCCCC2)sc1C | inconclusive: 10.1%

From PubChem BioAssay AID588497 (NMMLSC, 2011)
